These results are taken from paper PMC7826336.

Amino acid sequences for entries named in this document (tags omitted). A change or cut given only in a name is not applied to a line headed by its entry.
UniProt P03952: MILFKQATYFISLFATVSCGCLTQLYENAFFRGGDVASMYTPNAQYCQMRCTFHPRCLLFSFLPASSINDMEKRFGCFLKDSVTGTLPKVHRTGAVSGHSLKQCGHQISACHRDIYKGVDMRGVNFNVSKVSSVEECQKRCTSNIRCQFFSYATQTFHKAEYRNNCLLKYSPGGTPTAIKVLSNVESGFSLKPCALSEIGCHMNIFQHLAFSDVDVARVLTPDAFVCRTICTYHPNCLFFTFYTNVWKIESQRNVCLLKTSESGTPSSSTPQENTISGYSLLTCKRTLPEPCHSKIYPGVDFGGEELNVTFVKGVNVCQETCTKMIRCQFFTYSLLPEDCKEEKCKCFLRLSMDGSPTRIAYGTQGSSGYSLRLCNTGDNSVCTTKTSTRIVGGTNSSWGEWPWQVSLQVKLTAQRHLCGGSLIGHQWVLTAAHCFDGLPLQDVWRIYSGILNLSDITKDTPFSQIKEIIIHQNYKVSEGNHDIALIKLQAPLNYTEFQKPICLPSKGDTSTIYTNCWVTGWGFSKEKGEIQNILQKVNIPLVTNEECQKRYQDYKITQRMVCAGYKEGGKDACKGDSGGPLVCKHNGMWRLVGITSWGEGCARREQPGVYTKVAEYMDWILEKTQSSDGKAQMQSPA
UniProt P00740: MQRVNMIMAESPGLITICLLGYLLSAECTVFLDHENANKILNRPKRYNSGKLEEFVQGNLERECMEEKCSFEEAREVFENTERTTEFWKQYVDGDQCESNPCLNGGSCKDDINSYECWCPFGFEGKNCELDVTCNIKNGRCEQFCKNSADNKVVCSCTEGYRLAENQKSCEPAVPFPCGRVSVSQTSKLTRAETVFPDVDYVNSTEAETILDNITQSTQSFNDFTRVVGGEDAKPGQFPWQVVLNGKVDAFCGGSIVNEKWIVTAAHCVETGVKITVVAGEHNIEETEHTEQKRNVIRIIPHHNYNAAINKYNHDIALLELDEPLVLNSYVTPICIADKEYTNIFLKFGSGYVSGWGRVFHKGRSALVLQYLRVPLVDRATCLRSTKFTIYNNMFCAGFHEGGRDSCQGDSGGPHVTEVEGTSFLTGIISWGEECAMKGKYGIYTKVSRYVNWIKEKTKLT

Results are given in words; binding and its absence hold for the method and conditions named.

For the assay, the target named is kallikrein (PKa) (UniProt P03952). Briefly: SPR; as a1, but analyte (FIX or FIXa, 250 nM) preincubated in one vessel with 250 nM HK before injection over immobilised PK or PKa; signal compared with HK alone; n = 1; both purified.

Regarding “activated Factor IX (FIXa) (from UniProt P00740 47-191; P00740 227-461) (enzyme)”, the binding entry is given as “no binding (condition: preincubated with 250 nM HK)”.
